Test results taken from paper PMC12204631.
These are yes or no findings as the source states them, for the method shown. In cells and extracts the contact can be indirect. A yes stands for co-enrichment or nearness to the bait. Other partners may have been found. Where a sequence is shown, tags or fusion partners need not be part of it.

T1: 6HIS-HA-JHD2 (S. cerevisiae) (UniProt P47156)
T1 sequence: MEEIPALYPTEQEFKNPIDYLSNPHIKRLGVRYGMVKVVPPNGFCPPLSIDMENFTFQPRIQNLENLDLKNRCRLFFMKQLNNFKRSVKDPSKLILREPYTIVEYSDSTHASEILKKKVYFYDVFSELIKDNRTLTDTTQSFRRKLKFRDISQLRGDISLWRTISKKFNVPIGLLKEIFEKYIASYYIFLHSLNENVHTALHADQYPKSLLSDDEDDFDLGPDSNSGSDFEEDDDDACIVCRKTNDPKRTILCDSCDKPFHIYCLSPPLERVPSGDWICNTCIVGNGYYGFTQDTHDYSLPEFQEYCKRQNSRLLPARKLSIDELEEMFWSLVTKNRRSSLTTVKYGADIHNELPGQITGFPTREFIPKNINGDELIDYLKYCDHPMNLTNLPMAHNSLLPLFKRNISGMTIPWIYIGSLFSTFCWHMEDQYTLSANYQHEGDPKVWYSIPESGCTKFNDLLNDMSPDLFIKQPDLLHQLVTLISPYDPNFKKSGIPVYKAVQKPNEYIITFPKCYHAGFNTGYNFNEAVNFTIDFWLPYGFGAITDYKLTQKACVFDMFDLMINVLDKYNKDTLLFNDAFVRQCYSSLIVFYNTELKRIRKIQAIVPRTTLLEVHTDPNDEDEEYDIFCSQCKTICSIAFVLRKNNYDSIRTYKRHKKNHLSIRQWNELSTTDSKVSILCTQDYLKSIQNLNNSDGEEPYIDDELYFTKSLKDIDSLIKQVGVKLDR

B1: DUO1 (protein, UniProt P53168 1-247)
chain: MSEQSQLDDSTIDKLIPQIFNEMRSNLNNTTNKFPKSTGGGASDNISANSNSIRSFNSITTQSLLKESESLDKITAMIKNVTAALKNNLPVYVNQVHEVCKSTNSILDSWINIHSQAGYIHKLMSDQTYLKLINDRLHNENVNTNDEDGSTLHNVIALKKKEILDLRQKLENRKGEKDAAPAKPPNQGLNPRYGVQSGRRPVPSAGISNNGRVRKTHVPASKRPSGIPRVTNRWTKPTASSSRKMFR
B2: DAD2 (protein, UniProt P36162 1-133)
chain: MDSIDEQIAIKRKELQSLQKITSLTDGLKIQLTELNEQIKEMGMNADSVAQLMNNWDSIINNISQASLGLLQYAEGDYEIGPWKDSKKKESEQSNETGLEAQENDKNDEDNDEDEDLVPLPETMVRIRVDGNE
B3: Nud1 (protein, UniProt P32336 1-851)
chain: MDMDTQEAELSSQLENLTINSPRKLRSNAHSNSGKVFKEYESNHDFQDSNFTSQVVEPAISDSVKKPPTMTVLNNYSTVHQKVPSGFSGTTATSHQEAQWKQYFPGIGSGGGTNFGGAVGTANKVPESDLIVSDLVKDLSGVLETNTFKRHLDMKNKTTTMQTHENHDTISISHSKDFFNAEKVSSSFSDDSDSGPAAEAHDVFDGILQKQKSNYLVGSYPSNSNNKNNNNNNNNNNNNSININNKDNARTKEEDEEDTSNSFEFSSSSSMSSSQTQSGRKSKVLKKPPLNTISPGQLGYQFNHTHGAWDPPLNQGLDVSSSHSLDNTSSNQSQFATMVPTGDNHTNGKAPSILDKKAYELTSTKPGDVGYRQKKIQEEENLANSDDTPLDTPKFNDLFTKNGTRAKVKGQMRTSRSISNSNLLEAHKKLKTFPAERVEDITSISEVNTSFNETEKQLISILTSKLSGSPSYDSDWEKILKVDLSRGKLKNMFGMQRLLPNVLVLNLSDNEMNTLEGIPSNVVQLFCSNNKITSAHCSLAGFHDLECLDLSYNLLNTSLKFLSLCHHLQEVNLSYNSIQSLEGIGSSRMKKLNLSNNEINGIIDFEQLILTNNSVVGGWLTVEVLDLSNNNIIGVRNINCLPRLKVLNLNGNPLVSIVESSKMENGTLRALSIKNTGGALSKLQNYKLDDQFTFPYQNLKILKLDGFAQLSKWQKWPATLQILEINGGLASSLPRFSSLKSTNLYSLTIANVRDFTHLPVDLSKELPFLQELHLPGNNLQNAHKLTKTLPRQSVKFLDLRNNPITTPRHDRASTSLHYRQLLQLAGLCQQQCPALATLWLDDTPAPTATNL
B4: DAD3 (protein, UniProt P69850 1-94)
chain: MEHNLSPLQQEVLDKYKQLSLDLKALDETIKELNYSQHRQQHSQQETVSPDEILQEMRDIEVKIGLVGTLLKGSVYSLILQRKQEQESLGSNSK
B5: Mob1 (protein, UniProt P40484 1-314)
chain: MSFLQNFHISPGQTIRSTRGFKWNTANAANNAGSVSPTKATPHNNTINGNNNNANTINNRADFTNNPVNGYNESDHGRMSPVLTTPKRHAPPPEQLQNVTDFNYTPSHQKPFLQPQAGTTVTTHQDIKQIVEMTLGSEGVLNQAVKLPRGEDENEWLAVHCVDFYNQINMLYGSITEFCSPQTCPRMIATNEYEYLWAFQKGQPPVSVSAPKYVECLMRWCQDQFDDESLFPSKVTGTFPEGFIQRVIQPILRRLFRVYAHIYCHHFNEILELNLQTVLNTSFRHFCLFAQEFELLRPADFGPLLELVMELRDR
B6: HRR25 (protein, UniProt P29295 1-494)
chain: MDLRVGRKFRIGRKIGSGSFGDIYHGTNLISGEEVAIKLESIRSRHPQLDYESRVYRYLSGGVGIPFIRWFGREGEYNAMVIDLLGPSLEDLFNYCHRRFSFKTVIMLALQMFCRIQYIHGRSFIHRDIKPDNFLMGVGRRGSTVHVIDFGLSKKYRDFNTHRHIPYRENKSLTGTARYASVNTHLGIEQSRRDDLESLGYVLIYFCKGSLPWQGLKATTKKQKYDRIMEKKLNVSVETLCSGLPLEFQEYMAYCKNLKFDEKPDYLFLARLFKDLSIKLEYHNDHLFDWTMLRYTKAMVEKQRDLLIEKGDLNANSNAASASNSTDNKSETFNKIKLLAMKKFPTHFHYYKNEDKHNPSPEEIKQQTILNNNAASSLPEELLNALDKGMENLRQQQPQQQVQSSQPQPQPQQLQQQPNGQRPNYYPEPLLQQQQRDSQEQQQQVPMATTRATQYPPQINSNNFNTNQASVPPQMRSNPQQPPQDKPAGQSIWL
B7: FUN30 (protein, UniProt P31380 1-1131)
chain: MSGSHSNDEDDVVQVPETSSPTKVASSSPLKPTSPTVPDASVASLRSRFTFKPSDPSEGAHTSKPLPSGSPEVALVNLAREFPDFSQTLVQAVFKSNSFNLQSARERLTRLRQQRQNWTWNKNASPKKSETPPPVKKSLPLANTGRLSSIHGNINNKSSKITVAKQKTSIFDRYSNVINQKQYTFELPTNLNIDSEALSKLPVNYNKKRRLVRADQHPIGKSYESSATQLGSAREKLLANRKYGRHANDNDEEEEESMMTDDDDASGDDYTESTPQINLDEQVLQFINDSDIVDLSDLSDTTMHKAQLIASHRPYSSLNAFVNTNFNDKDTEENASNKRKRRAAASANESERLLDKITQSIRGYNAIESVIKKCSSYGDLVTSQMKKWGVQVEGDNSELDLMNLGEDDDDDNDDGNNDNNNSNNNNTAGADATSKEKEDTKAVVEGFDETSAEPTPAPAPAPVERETKRIRNTTKPKVVEDEDDDVDLEAIDDELPQSEHEDDDYEEEDEDYNDEEEDVEYDDGDDDDDDDDEFVATRKNTHVISTTSRNGRKPIVKFFKGKPRLLSPEISLKDYQQTGINWLNLLYQNKMSCILADDMGLGKTCQVISFFAYLKQINEPGPHLVVVPSSTLENWLREFQKFAPALKIEPYYGSLQEREELRDILERNAGKYDVIVTTYNLAAGNKYDVSFLKNRNFNVVVYDEGHMLKNSTSERFAKLMKIRANFRLLLTGTPLQNNLKELMSLLEFIMPNLFISKKESFDAIFKQRAKTTDDNKNHNPLLAQEAITRAKTMMKPFILRRRKDQVLKHLPPKHTHIQYCELNAIQKKIYDKEIQIVLEHKRMIKDGELPKDAKEKSKLQSSSSKNLIMALRKASLHPLLFRNIYNDKIITKMSDAILDEPAYAENGNKEYIKEDMSYMTDFELHKLCCNFPNTLSKYQLHNDEWMQSGKIDALKKLLKTIIVDKQEKVLIFSLFTQVLDILEMVLSTLDYKFLRLDGSTQVNDRQLLIDKFYEDKDIPIFILSTKAGGFGINLVCANNVIIFDQSFNPHDDRQAADRAHRVGQTKEVNITTLITKDSIEEKIHQLAKNKLALDSYISEDKKSQDVLESKVSDMLEDIIYDENSKPKGTKE
B8: SPC110 (protein, UniProt P32380 1-944)
chain: MDEASHLPNGSLKNMEFTPVGFIKSKRNTTQTQVVSPTKVPNANNGDENEGPVKKRQRRSIDDTIDSTRLFSEASQFDDSFPEIKANIPPSPRSGNVDKSRKRNLIDDLKKDVPMSQPLKEQEVREHQMKKERFDRALESKLLGKRHITYANSDISNKELYINEIKSLKHEIKELRKEKNDTLNNYDTLEEETDDLKNRLQALEKELDAKNKIVNSRKVDDHSGCIEEREQMERKLAELERKLKTVKDQVLELENNSDVQSLKLRSKEDELKNLMNELNELKSNAEEKDTQLEFKKNELRKRTNELNELKIKSDEMDLQLKQKQNESKRLKDELNELETKFSENGSQSSAKENELKMLKNKIAELEEEISTKNSQLIAKEGKLASLMAQLTQLESKLNQRDSQLGSREEELKKTNDKLQKDIRIAREETVSKDERIIDLQKKVKQLENDLFVIKKTHSESKTITDNELESKDKLIKILENDLKVAQEKYSKMEKELKEREFNYKISESKLEDEKTTLNEKISNLAAENSQLKNKIEDNSTATHHMKENYEKQLESLRKDIEEYKESAKDSEDKIEELKIRIAENSAKVSEKRSKDIKQKDEQISDLTQNLKLQEDEISSLKSIIDRYKKDFNQLKSEQSNIQHDLNLQILNLENKLIESEDELKSLRDSQKIEIENWKRKYNNLSLENDRLLTEKESASDKEREISILNRKLDEMDKEKWNLQESKEKYKRELQKVITANDRLRREKEELNENSNNIRIMEDKMTRIKKNYLSEITSLQEENRRLEERLILNERRKDNDSTMQLNDIISYYKLKYHSEVRHNNDLKVINDYLNKVLALGTRRLRLDTRKGEHSLNISLPDDDELDRDYYNSHVYTRYHDYEYPLRFNLNRRGPYFERRLSFKTVALLVLACVRMKRIAFYRRSDDNRLRILRDRIESSSGRISW

What follows are binders tested against T1, 6HIS-HA-JHD2 (S. cerevisiae) (assay: affinity purification with mass spectrometry; whole cell extracts of a wild-type strain with 6HIS-HA-JHD2 induced from the GAL1 promoter for 6 hours; Ni-NTA agarose and anti-HA agarose beads at 4°C for 24 hours; proteins found with the empty vector strain excluded).

binding, binds:
B1
B2
B3
B4
B5
B6
B7
B8
